PMC10993572
Results are given in words; binding and its absence hold for the method and conditions named. Binding seen in cells or lysates may run through a third protein. Some entries that bind do so weakly or less than the wild type.

Protein sequences, listed by entry. Tags and fused reporters are not part of them. Residues count along the entry.
UniProt P05121, residues 24-402: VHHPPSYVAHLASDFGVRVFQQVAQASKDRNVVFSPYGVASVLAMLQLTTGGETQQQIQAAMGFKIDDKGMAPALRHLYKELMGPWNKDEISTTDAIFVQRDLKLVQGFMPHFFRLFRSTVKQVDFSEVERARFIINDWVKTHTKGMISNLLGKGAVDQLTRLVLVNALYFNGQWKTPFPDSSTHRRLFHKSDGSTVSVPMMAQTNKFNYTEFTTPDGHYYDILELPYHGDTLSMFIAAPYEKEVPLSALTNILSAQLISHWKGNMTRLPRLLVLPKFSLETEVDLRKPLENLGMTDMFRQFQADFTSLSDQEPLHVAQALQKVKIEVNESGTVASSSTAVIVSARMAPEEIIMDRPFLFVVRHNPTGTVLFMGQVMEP
UniProt Q04206: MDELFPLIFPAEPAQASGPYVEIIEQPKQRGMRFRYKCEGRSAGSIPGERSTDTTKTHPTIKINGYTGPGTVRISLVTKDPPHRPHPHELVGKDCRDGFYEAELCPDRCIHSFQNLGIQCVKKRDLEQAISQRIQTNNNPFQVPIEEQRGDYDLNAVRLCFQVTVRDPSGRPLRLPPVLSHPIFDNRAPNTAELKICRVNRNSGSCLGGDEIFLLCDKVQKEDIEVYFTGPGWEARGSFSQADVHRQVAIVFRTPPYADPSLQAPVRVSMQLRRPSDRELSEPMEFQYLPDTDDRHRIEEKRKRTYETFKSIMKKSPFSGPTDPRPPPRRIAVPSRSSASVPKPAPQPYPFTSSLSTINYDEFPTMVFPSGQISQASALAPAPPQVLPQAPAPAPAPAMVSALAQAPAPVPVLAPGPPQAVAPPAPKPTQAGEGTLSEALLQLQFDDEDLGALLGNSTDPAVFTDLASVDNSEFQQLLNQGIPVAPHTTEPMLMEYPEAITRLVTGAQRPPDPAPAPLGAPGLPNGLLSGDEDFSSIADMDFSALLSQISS

Key:
[1] = target: SERPINE1 (serpin family E member 1), endogenous in RKO cells (human (endogenous in RKO)) (UniProt P05121); experiment: co-IP; endogenous proteins in RKO cell lysate; primary antibody overnight at 4 °C, Protein A/G magnetic beads, washed with PBST; western blot
[2] = target: GFP-SERPINE1 (serpin family E member 1 tagged with GFP) (UniProt P05121); experiment: co-IP; exogenous proteins in transfected 293T cell lysate; primary antibody overnight at 4 °C, Protein A/G magnetic beads, washed with PBST; western blot

| Substance | binding [1] | binding [2] |
| --- | --- | --- |
| NF-κB p65, endogenous in RKO cells (from UniProt Q04206 1-551) | binds |  |
| p65-FLAG (from UniProt Q04206 1-551) |  | binds |
